Where a chain is given by its changes, count along the chain named. No constants are given. Whether binding was seen depends on the method and setting. Binding seen in cells or lysates may run through a third protein. Some binding calls cover weakened binding; strength is not graded here. Tags and fused reporters may be left off the sequences shown.
Legend:
[1] = target: T1, GST–BIN2 (BRASSINOSTEROID …2) (Arabidopsis) (UniProt Q39011); experiment: pull-down; semi-in vivo: GST fusions immobilized on glutathione resin; supernatant of total protein extract of plants overexpressing TUA6-GFP incubated with the beads 1 h at 4 °C; western blot with anti-α-tubulin antibody; only the target purified
T1 sequence: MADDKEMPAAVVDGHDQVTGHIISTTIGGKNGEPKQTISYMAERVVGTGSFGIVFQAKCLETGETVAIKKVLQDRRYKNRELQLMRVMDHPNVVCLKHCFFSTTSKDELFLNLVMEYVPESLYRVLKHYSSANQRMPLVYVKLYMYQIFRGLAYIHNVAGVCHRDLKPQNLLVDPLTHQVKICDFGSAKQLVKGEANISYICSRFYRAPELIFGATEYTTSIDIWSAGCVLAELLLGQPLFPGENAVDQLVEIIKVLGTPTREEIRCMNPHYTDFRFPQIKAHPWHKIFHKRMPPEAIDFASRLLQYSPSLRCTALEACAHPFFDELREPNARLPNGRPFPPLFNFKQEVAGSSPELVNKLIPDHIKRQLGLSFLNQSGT

Chains of the proteins cited; added tags and fusions are not shown.
UniProt P29511: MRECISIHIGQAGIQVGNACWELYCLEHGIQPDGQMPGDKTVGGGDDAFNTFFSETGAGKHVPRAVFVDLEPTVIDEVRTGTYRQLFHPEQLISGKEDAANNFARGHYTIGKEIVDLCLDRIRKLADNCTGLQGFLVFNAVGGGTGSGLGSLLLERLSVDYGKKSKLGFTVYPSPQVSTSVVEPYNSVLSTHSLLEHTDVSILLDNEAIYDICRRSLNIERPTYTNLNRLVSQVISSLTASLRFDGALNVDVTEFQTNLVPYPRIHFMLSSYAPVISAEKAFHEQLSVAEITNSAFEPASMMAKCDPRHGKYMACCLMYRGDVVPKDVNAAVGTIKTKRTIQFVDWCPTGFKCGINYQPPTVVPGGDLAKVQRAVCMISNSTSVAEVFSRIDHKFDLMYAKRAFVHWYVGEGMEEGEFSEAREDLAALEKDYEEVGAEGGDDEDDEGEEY

[2] = target: T2, GST–BIN2^K69R (kinase-dead form of BIN2) (Arabidopsis) (UniProt Q39011); experiment: as above
T2 sequence: T1 sequence with K69R

- binding [1]: binds
- binding [2]: binds
Substance: TUA6-GFP (from UniProt P29511 1-450)

Source: paper PMC6018924, “Brassinosteroids regulate pavement cell growth by mediating BIN2-induced microtubule stabilization” (Journal of Experimental Botany, 2018)
